PubChem BioAssay AID1159600 | NIAID | 2016
Screen: 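Which TLR pathway genes support TNF promoter activation by R848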 (primary screen). System: human THP-1 TNF reporter clone B5, made macrophage-like with PMA. Reagent: single siRNA against human genes. Time to read-out: 4 h ligand stimulation, assayed 48 to 72 h after siRNA transfection. Treatment: R848 (TLR7/8 agonist) for 4 hours before lysis; dose not given. Read-out: 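Robust z-score of firefly over renilla TNF promoter signal after 4 h R848, plate median/MAD normalised, relative to negative controls, averaged across replicates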. Direction: TNF reporter z-score: higher = stronger TNF promoter reporter signal after R848. Rule for the call: 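siRNAs graded by distance of mean z-score from zero in steps of 1, 1.5, 2 and 2.5; active calls sit at roughly -1.5 or below, or 1.5 or above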. Meaning of the calls: active = strong change in TNF reporter (up or down); inactive = little change.
This is one part, drawn at random, of 756 reagents. Of all reagents, 134 (18%) are marked active. 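Active includes both reduced and increased reporter signal, though most active siRNAs reduce it; R848 dose unknown.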 Entries without a mark were called inactive. The numbers tell different reagents against one gene apart. Not given: the amount of reagent.

PTPN6 (protein tyrosine phosphatase non-receptor type 6) #1: TNF reporter z-score = -0.779
PTPN6 (protein tyrosine phosphatase non-receptor type 6) #2: TNF reporter z-score = 0.144
PTPN6 (protein tyrosine phosphatase non-receptor type 6) #3: TNF reporter z-score = -0.528
PTPN6 (protein tyrosine phosphatase non-receptor type 6) #4: TNF reporter z-score = -1.17
PTPN6 (protein tyrosine phosphatase non-receptor type 6) #5: TNF reporter z-score = -0.864
PTPN6 (protein tyrosine phosphatase non-receptor type 6) #6: TNF reporter z-score = -0.16
ATF7 (activating transcription factor 7) #1: TNF reporter z-score = -2.49 (active)
ATF7 (activating transcription factor 7) #2: TNF reporter z-score = -0.187
ATF7 (activating transcription factor 7) #3: TNF reporter z-score = -2.39 (active)
ATF7 (activating transcription factor 7) #4: TNF reporter z-score = -1.46
ATF7 (activating transcription factor 7) #5: TNF reporter z-score = -0.297
ATF7 (activating transcription factor 7) #6: TNF reporter z-score = -1.19
IFNAR2 (interferon alpha and beta receptor subunit 2) #1: TNF reporter z-score = -2.56 (active)
IFNAR2 (interferon alpha and beta receptor subunit 2) #2: TNF reporter z-score = -1.35
IFNAR2 (interferon alpha and beta receptor subunit 2) #3: TNF reporter z-score = 0.0107
IFNAR2 (interferon alpha and beta receptor subunit 2) #4: TNF reporter z-score = -1.29
IFNAR2 (interferon alpha and beta receptor subunit 2) #5: TNF reporter z-score = 0.0754
IFNAR2 (interferon alpha and beta receptor subunit 2) #6: TNF reporter z-score = -0.316
RELA (RELA proto-oncogene, NF-kB subunit) #1: TNF reporter z-score = -0.178
RELA (RELA proto-oncogene, NF-kB subunit) #2: TNF reporter z-score = -0.642
RELA (RELA proto-oncogene, NF-kB subunit) #3: TNF reporter z-score = -0.566
RELA (RELA proto-oncogene, NF-kB subunit) #4: TNF reporter z-score = -1.33
RELA (RELA proto-oncogene, NF-kB subunit) #5: TNF reporter z-score = 0.284
RELA (RELA proto-oncogene, NF-kB subunit) #6: TNF reporter z-score = -1.24
